Laboratory results published in publication PMC10792936.
Results are given in words; binding and its absence hold for the method and conditions named. Binding seen in cells or lysates may run through a third protein. Some results given as binding are weak or reduced against the parent protein; the word gives no strength.

The chains behind the UniProt entries cited, without tags or fusion partners.
UniProt P05412: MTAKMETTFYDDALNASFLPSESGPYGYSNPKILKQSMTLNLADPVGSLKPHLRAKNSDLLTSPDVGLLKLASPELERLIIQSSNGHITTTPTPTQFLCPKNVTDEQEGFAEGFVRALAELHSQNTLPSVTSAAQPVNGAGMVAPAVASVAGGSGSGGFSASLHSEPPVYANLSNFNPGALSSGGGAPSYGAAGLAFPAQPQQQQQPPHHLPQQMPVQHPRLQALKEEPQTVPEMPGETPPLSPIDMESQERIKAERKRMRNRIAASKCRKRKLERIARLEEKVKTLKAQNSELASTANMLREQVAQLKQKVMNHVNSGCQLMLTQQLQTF
UniProt P45974: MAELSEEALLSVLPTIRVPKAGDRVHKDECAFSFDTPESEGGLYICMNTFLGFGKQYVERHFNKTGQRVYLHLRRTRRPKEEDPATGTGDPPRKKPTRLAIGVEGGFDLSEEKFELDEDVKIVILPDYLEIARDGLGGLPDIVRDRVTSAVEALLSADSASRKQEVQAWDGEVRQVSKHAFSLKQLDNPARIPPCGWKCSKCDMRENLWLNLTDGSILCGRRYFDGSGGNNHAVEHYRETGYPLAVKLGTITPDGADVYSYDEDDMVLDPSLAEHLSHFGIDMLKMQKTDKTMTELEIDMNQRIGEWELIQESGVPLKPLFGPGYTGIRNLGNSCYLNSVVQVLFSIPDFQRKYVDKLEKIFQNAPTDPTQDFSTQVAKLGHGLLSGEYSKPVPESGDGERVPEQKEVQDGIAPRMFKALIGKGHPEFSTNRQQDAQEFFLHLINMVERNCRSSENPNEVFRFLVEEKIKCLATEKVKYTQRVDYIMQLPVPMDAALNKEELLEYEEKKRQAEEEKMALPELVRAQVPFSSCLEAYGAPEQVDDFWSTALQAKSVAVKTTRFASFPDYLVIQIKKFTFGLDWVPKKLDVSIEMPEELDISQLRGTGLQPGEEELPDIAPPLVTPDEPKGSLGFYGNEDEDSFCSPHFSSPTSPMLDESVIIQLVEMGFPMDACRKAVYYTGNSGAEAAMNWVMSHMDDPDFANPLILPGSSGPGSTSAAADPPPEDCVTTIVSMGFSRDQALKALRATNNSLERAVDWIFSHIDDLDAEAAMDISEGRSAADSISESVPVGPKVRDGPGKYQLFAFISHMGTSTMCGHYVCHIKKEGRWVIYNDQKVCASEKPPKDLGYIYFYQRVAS

Molecular target: c-Jun (human (endogenous in T24)) (UniProt P05412)
Assay: co-IP; endogenous proteins in T24 cells; NP-40 lysis buffer (20 mM Tris-HCl pH 7.4, 150 mM NaCl, 1% NP-40), antibody and rProtein A/G Magarose beads overnight at 4 °C; which protein was precipitated not given

## USP5 (from UniProt P45974 1-858) (enzyme)
  binding: binds
